Measurements reported in the supplement of paper PMC12889115.
The list shows a part of the results. Values are raw readings; no control value is given beside them.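 Primary screen: polymyxin B was added at a level permeabilizing Salmonella outer membranes while sparing inner membranes. DMSO wells, both with and without polymyxin B, established maximum growth. Plate-to-plate variation meant each plate was ranked on its own, and the lowest-OD600 compounds were selected as hits.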

Test system: Salmonella enterica serovar Typhimurium SL1344
Experiment: bacterial growth OD600 after 18 h with compound and polymyxin B; higher = more bacterial growth (less inhibition)
Conditions: 50 µM, Mueller-Hinton broth

| Structure (SMILES) | bacterial growth OD600 (polymyxin B 0.75 µg/mL) | bacterial growth OD600 (polymyxin B 1 µg/mL) |
| --- | --- | --- |
| CCNC(=O)c1cn(C(C)CC)cc(C(=O)NCc2cc(-c3ccccc3)on2)c1=O (configuration not stated) | 0.854 |  |
| CCN(CC)CCN(CC)C(=O)Cn1nnnc1CN1CCOCC1 | 0.964 |  |
| COc1cc(CC2(CCC(=O)NCc3cnn(Cc4ccccc4)c3)CCC(=O)N2)ccc1F (configuration not stated) | 0.983 |  |
| O=C(NCc1cccc(F)c1F)C1CCC(=O)N(CCc2cccc(F)c2)C1 (configuration not stated) |  | 0.817 |
| COc1cccc(C(C)N(C)Cc2nc(-c3ccc(Cl)cc3)oc2C)c1 (configuration not stated) |  | 0.351 |
| CN1CCN(c2ncccc2CNC(=O)[C@@H]2C[C@H]2c2ccccc2)CC1 | 0.952 |  |
| Cc1ccccc1N1CCN(C2CCCN(Cc3cccc4nonc34)C2)CC1 (configuration not stated) |  | 0.968 |
| CC(=O)NCC(=O)N1CCCC(CCc2cccc(F)c2)C1 (configuration not stated) | 0.996 |  |
| CCOC(=O)C1(Cc2ccc(Cl)cc2)CCN(C(=O)CCC2(C)CC2)CC1 |  | 0.836 |
| COc1cccc(CCNC(=O)c2cn(CC3CCCO3)nn2)c1OC (configuration not stated) |  | 0.796 |
| COc1ccc(CNC(=O)CCC2CCCN(Cc3ccc(O)c(OC)c3)C2)c(OC)c1 (configuration not stated) | 0.798 |  |
| O=C(NC1CC(=O)N(Cc2cccc(F)c2)C1)c1ccccn1 (configuration not stated) |  | 0.842 |
| Cc1nn(C)c(C)c1S(=O)(=O)N1CCCC(CNC(=O)c2ccc3c(c2)OCO3)C1 (configuration not stated) |  | 0.981 |
| Cc1nc(N2CCCC2C(=O)NCCc2ccccc2F)nc2ccccc12 (configuration not stated) | 0.647 |  |
| CCCCN(Cc1ccccc1)Cc1nc(-c2ccc(C(=O)OC)cc2)no1 |  | 1.02 |
| CCCCNC(=O)C1CC(=O)c2sc(NC(=O)C3CCC3)nc2C1 (configuration not stated) | 0.842 |  |

| Structure (SMILES) | bacterial growth OD600 (polymyxin B 0.75 µg/mL) | bacterial growth OD600 (polymyxin B 1 µg/mL) |
| --- | --- | --- |
| O=C(CCC(F)(F)F)N(CC1CCN(Cc2ccccc2F)CC1)CC1CCCO1 (configuration not stated) |  | 0.917 |
| CCOC(=O)C1(CCCc2ccccc2)CCCN(C(=O)c2coc3c2C(=O)CCC3)C1 (configuration not stated) |  | 0.006 |
| CN(Cc1nc(-c2ccc3c(c2)OCO3)no1)C1CC(C)(C)NC(C)(C)C1 |  | 0.903 |
| COCCN1C(=O)CC(CC(=O)N2CC3CC4CC(C3)CC2C4)(c2ccccc2F)C1=O (configuration not stated) | 0.758 |  |
| Cc1nc(N2CCC(C(=O)NC(C)(C)C)CC2)nc2ccccc12 | 0.963 |  |
| Cc1ccc2c(c1)CN(C1CCSCC1)CC(c1ccsc1)O2 (configuration not stated) | 0.427 |  |
| CCN1CCC(NC2CC(=O)N(CCc3cccc(Cl)c3)C2)CC1 (configuration not stated) |  | 0.912 |
| COc1ccccc1OCC(=O)NCC1CCCN(Cc2ccc(O)c(Cl)c2)C1 (configuration not stated) |  | 0.813 |
| O=C(Cc1ccc(N2CCC(NCCC3COc4ccccc4O3)CC2)cc1)NCc1ccccc1 (configuration not stated) | 0.815 |  |
| O=C1N(Cc2cccnc2)C[C@@H]2C[C@@H](c3cccc(C(F)(F)F)c3)N3CCC[C@@]123 | 0.749 |  |
| CCc1ccc(CN(C)Cc2nc(-c3ccc(OC)c(OC)c3OC)no2)cc1 |  | 0.906 |
| Cn1cc(CNC(=O)CCN2Cc3ccccc3OC(c3ccccc3F)C2)cn1 (configuration not stated) | 0.754 |  |
| O=C(c1ccc(C(F)(F)F)cc1)C1CCCN(C(=O)CSc2ccccn2)C1 (configuration not stated) |  | 0.578 |
| COc1cccc(NC(=O)CCC2CCN(S(=O)(=O)N(C)C)CC2)c1 |  | 0.957 |
| Cc1occc1C(=O)NCc1cccnc1N(C)C |  | 0.935 |
| CC(C)c1ccc(NC2CCCN(C(=O)c3cnn(C(C)C)c3)C2)cc1 (configuration not stated) |  | 0.887 |

Entries listed so far containing a furan ring, fused or not, in the order listed:

| Structure (SMILES) | bacterial growth OD600 (polymyxin B 0.75 µg/mL) | bacterial growth OD600 (polymyxin B 1 µg/mL) |
| --- | --- | --- |
| CCOC(=O)C1(CCCc2ccccc2)CCCN(C(=O)c2coc3c2C(=O)CCC3)C1 (configuration not stated) |  | 0.006 |
| Cc1occc1C(=O)NCc1cccnc1N(C)C |  | 0.935 |
